Experimental data: PubChem BioAssay AID1224826 (NIAID, 2016)
The whole screen tested about 17,000 reagents; below is a part drawn at random. Of all reagents, about 1,110 (6.6%) got an active call. 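Active means lowered or raised reporter signal; replicate intensities are raw and not normalised per plate.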 The numbers tell different reagents against one gene apart. No sequences are given here.

- Purpose: 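Regulators of Tlr4 signalling leading to Tnf-alpha expression in macrophages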 (primary screen)
- Cell system: RAW264.7 G9 macrophages from mouse bearing reporters for p65 (GFP) and the Tnf promoter (mCherry)
- Knock-down reagent: siRNA pool against mouse genes, 100 nM
- Time to read-out: 16 h of LPS stimulation, after 2 days of siRNA transfection
- Conditions: bacterial lipopolysaccharide (Salmonella minnesota R595), 10 ng/ml
- Detection: 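Nuclear mCherry signal of the Tnf promoter reporter measured by imaging after background removal, scaled to each plate median and turned into robust z-scores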
- Reading the numbers: Tnf reporter robust z-score: higher = stronger Tnf promoter reporter signal after LPS; Tnf reporter intensity: higher = stronger Tnf promoter reporter signal
- Call rule: 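a well counts as active at a score of -1.3 or below (Tlr4 knock-down control median) or above 3 (raised signal); controls and wells holding fewer than 50 cells are excluded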
- Calls: active = Tnf reporter clearly lowered or raised; inactive = no clear change in Tnf reporter

target | reagent no. | Tnf reporter robust z-score | fewer than 50 cells in well | Tnf reporter intensity, replicate 1 | Tnf reporter intensity, replicate 2 | call
Gm16897 | 1 | – | fewer than 50 cells per well; well left out of calls | 156 | 184 | inactive
Gtsf1l | 1 | 0.47 | enough cells in well | 288 | 82.1 | inactive
Znrd2 | 1 | -0.65 | enough cells in well | 200 | 184 | inactive
Or12e1 | 1 | 0.18 | enough cells in well | 294 | 91.8 | inactive
Hacd3 | 1 | -0.21 | enough cells in well | 145 | 146 | inactive
Zfp239 | 1 | – | fewer than 50 cells per well; well left out of calls | 0 | 59.7 | inactive
Orc2 | 1 | 1.46 | enough cells in well | 198 | 198 | inactive
Mt3 | 1 | -0.06 | enough cells in well | 312 | 156 | inactive
Slc9a4 | 1 | -0.95 | enough cells in well | 74.2 | 61.6 | inactive
Npdc1 | 1 | 0.85 | enough cells in well | 248 | 189 | inactive
Cep57 | 1 | – | fewer than 50 cells per well; well left out of calls | 157 | 40.8 | inactive
Klk1b5 | 1 | 0.24 | enough cells in well | 221 | 133 | inactive
Gdap2 | 1 | -0.29 | enough cells in well | 221 | 125 | inactive
Ppp2r3a | 1 | 0.08 | enough cells in well | 178 | 145 | inactive
Or5t7 | 1 | 0.13 | enough cells in well | 173 | 176 | inactive
Hdac8 | 1 | -0.92 | enough cells in well | 168 | 126 | inactive
Trabd | 1 | 2.18 | enough cells in well | 316 | 245 | inactive
Cd22 | 1 | 0.87 | enough cells in well | 278 | 307 | inactive
BCLP2 | 1 | 1.93 | enough cells in well | 269 | 274 | inactive
Zfp709 | 1 | 0.46 | enough cells in well | 247 | 229 | inactive
Mast3 | 1 | -1.14 | enough cells in well | 127 | 127 | inactive
Rps15 | 1 | – | fewer than 50 cells per well; well left out of calls | 83.2 | 65.9 | inactive
1700084J12Rik | 1 | -1.44 | enough cells in well | 115 | 55.4 | active
Pnma3 | 1 | 0.94 | enough cells in well | 207 | 134 | inactive
Rhob | 1 | 0.2 | enough cells in well | 350 | 205 | inactive
Sigmar1 | 1 | -0.39 | enough cells in well | 212 | 156 | inactive
Zfp654 | 1 | -1.44 | enough cells in well | 150 | 36.1 | active
Lancl1 | 1 | -0.23 | enough cells in well | 235 | 208 | inactive
Pof1b | 1 | 0.47 | enough cells in well | 134 | 166 | inactive
Mms22l | 1 | -0.84 | enough cells in well | 118 | 138 | inactive
St8sia5 | 1 | 0.31 | enough cells in well | 117 | 106 | inactive
Aprt | 1 | -1.45 | enough cells in well | 84.2 | 88.7 | active
Kif11 | 1 | -1.23 | enough cells in well | 140 | 88.3 | inactive

Called active, among the entries above:
target | reagent no. | Tnf reporter robust z-score | fewer than 50 cells in well | Tnf reporter intensity, replicate 1 | Tnf reporter intensity, replicate 2 | call
1700084J12Rik | 1 | -1.44 | enough cells in well | 115 | 55.4 | active
Zfp654 | 1 | -1.44 | enough cells in well | 150 | 36.1 | active
Aprt | 1 | -1.45 | enough cells in well | 84.2 | 88.7 | active

The listing continues.
target | reagent no. | Tnf reporter robust z-score | fewer than 50 cells in well | Tnf reporter intensity, replicate 1 | Tnf reporter intensity, replicate 2 | call
Boc | 1 | 0.07 | enough cells in well | 0 | 167 | inactive
Tmem9b | 1 | – | fewer than 50 cells per well; well left out of calls | 113 | 65.5 | inactive
Slc25a11 | 1 | 3.17 | enough cells in well | 180 | 241 | active
Rnf111 | 1 | 0.07 | enough cells in well | 154 | 108 | inactive
Actr6 | 1 | 1.38 | enough cells in well | 280 | 295 | inactive
Dcpp1 | 1 | -1.51 | enough cells in well | 99.9 | 73.7 | active
Dcpp1 | 2 | – | fewer than 50 cells per well; well left out of calls | 62.2 | 40.8 | inactive
Lpin1 | 1 | -1.17 | enough cells in well | 118 | 79 | inactive
Kcnk1 | 1 | -1.3 | enough cells in well | 113 | 70.4 | active
Trim44 | 1 | 0.4 | enough cells in well | 134 | 67.2 | inactive
Ang4 | 1 | 0.78 | enough cells in well | 225 | 200 | inactive
Hsd17b4 | 1 | 0.55 | enough cells in well | 256 | 246 | inactive
Grhl2 | 1 | 0.81 | enough cells in well | 181 | 91.1 | inactive
Dtwd1 | 1 | – | fewer than 50 cells per well; well left out of calls | 53.9 | 24.8 | inactive
Trim62 | 1 | 1.12 | enough cells in well | 252 | 194 | inactive
Ccnl1 | 1 | -0.44 | enough cells in well | 201 | 186 | inactive
Serpinb2 | 1 | -0.73 | enough cells in well | 262 | 118 | inactive
Fibcd1 | 1 | 0.26 | enough cells in well | 241 | 188 | inactive
Fmr1 | 1 | -0.65 | enough cells in well | 230 | 158 | inactive
C1rl | 1 | 2.02 | enough cells in well | 212 | 237 | inactive
Taf5 | 1 | -0.11 | enough cells in well | 170 | 164 | inactive
Prss45 | 1 | -0.1 | enough cells in well | 220 | 111 | inactive
Ecrg4 | 1 | 1.74 | enough cells in well | 383 | 131 | inactive
Alcam | 1 | 0.64 | enough cells in well | 234 | 173 | inactive
Or1e35 | 1 | 0.32 | enough cells in well | 210 | 127 | inactive
Tmem260 | 1 | 0.42 | enough cells in well | 213 | 207 | inactive
Ranbp10 | 1 | -0.27 | enough cells in well | 148 | 65.2 | inactive
Ogg1 | 1 | -0.31 | enough cells in well | 256 | 131 | inactive
Il13ra1 | 1 | 0.29 | enough cells in well | 285 | 186 | inactive
Ccdc68 | 1 | 0.11 | enough cells in well | 225 | 129 | inactive
Syne4 | 1 | -0.36 | enough cells in well | 184 | 162 | inactive
Myl12b | 1 | -1.46 | enough cells in well | 103 | 60.1 | active
Bricd5 | 1 | 1.03 | enough cells in well | 236 | 262 | inactive
Klra7 | 1 | -0.31 | enough cells in well | 196 | 149 | inactive
Clec4n | 1 | -1.22 | enough cells in well | 92.4 | 110 | inactive
Slc22a13 | 1 | 3.68 | enough cells in well | 203 | 252 | active
Prh1 | 1 | 0.3 | enough cells in well | 126 | 159 | inactive
Slit2 | 1 | 0.6 | enough cells in well | 280 | 162 | inactive
Med7 | 1 | -0.1 | enough cells in well | 221 | 202 | inactive
Armcx2 | 1 | -0.62 | enough cells in well | 160 | 107 | inactive
Tas2r107 | 1 | -0.02 | enough cells in well | 294 | 80.6 | inactive
Sec11c | 1 | – | fewer than 50 cells per well; well left out of calls | 39 | 55.3 | inactive
